US20110136676
Negatives hold for the conditions tested.

Chains of the proteins cited; added tags and fusions are not shown. A line that says so, or that is headed by a name, gives the form on record, which may keep a tag or linker.
Mlh1-Pms1 cleaved by TEV protease in linker arms (Saccharomyces cerevisiae), one chain, as listed by the source, chain 1 of 2: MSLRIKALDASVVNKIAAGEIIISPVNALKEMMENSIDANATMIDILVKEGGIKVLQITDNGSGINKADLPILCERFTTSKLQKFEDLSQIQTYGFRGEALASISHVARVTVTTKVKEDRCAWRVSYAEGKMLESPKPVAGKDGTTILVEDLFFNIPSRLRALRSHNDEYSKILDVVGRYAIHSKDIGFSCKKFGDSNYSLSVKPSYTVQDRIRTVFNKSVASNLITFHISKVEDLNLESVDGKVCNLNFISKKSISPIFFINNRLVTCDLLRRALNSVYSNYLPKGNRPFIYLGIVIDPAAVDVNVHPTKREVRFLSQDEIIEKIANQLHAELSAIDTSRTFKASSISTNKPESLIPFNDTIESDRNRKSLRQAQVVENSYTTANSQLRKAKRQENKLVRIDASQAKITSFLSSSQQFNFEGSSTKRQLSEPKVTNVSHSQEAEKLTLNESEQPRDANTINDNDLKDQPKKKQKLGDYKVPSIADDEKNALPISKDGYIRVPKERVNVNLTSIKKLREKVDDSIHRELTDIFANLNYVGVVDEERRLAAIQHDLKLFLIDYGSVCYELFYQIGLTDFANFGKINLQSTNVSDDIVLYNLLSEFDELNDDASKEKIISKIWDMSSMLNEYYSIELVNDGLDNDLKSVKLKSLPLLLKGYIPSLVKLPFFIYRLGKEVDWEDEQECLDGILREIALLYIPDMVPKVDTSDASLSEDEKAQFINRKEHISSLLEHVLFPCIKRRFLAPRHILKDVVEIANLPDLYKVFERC
Mlh1-Pms1 cleaved by TEV protease in linker arms (Saccharomyces cerevisiae), one chain, as listed by the source, chain 2 of 2: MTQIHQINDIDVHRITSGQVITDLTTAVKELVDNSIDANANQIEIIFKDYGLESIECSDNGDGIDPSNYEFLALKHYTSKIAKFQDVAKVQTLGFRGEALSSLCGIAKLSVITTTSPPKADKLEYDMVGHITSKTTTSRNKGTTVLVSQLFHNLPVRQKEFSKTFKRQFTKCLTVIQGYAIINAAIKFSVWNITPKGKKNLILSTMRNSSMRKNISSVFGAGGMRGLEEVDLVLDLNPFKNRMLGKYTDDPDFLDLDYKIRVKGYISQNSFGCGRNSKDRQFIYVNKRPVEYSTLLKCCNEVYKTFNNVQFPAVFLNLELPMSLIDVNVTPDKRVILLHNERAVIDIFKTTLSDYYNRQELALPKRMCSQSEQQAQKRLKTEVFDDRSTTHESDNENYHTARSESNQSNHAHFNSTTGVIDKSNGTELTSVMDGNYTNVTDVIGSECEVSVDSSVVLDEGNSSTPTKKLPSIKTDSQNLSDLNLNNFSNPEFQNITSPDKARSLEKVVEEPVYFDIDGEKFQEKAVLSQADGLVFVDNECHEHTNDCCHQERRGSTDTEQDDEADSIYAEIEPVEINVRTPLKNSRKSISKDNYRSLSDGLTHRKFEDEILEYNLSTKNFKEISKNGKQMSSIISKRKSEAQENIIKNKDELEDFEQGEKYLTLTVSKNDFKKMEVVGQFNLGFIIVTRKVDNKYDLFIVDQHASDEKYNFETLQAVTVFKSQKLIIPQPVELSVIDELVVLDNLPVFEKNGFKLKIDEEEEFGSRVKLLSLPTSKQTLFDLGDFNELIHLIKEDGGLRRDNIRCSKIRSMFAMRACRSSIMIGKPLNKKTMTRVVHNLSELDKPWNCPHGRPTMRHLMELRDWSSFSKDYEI

Test system: Mlh1-Pms1 cleaved by TEV protease in linker arms (Saccharomyces cerevisiae)
Assay: EMSA
Conditions: cleavage of one or both linker arms abolished detectable binding; purified recombinant protein; label: 5'-32P

Question: Does “ACCGAATTCTGACTTGCTAGGACATCTTTGCCCACGTTGA (double strand) [40 bp S1/S2 duplex]” bind?
Answer: no binding
